This note sets out measurements from paper PMC7819943, “Rice protein-binding microarrays: a tool to detect cis-acting elements near promoter regions in rice”.

The chains behind the UniProt entries cited, without tags or fusion partners.
UniProt Q0JBA9, entry or part of it: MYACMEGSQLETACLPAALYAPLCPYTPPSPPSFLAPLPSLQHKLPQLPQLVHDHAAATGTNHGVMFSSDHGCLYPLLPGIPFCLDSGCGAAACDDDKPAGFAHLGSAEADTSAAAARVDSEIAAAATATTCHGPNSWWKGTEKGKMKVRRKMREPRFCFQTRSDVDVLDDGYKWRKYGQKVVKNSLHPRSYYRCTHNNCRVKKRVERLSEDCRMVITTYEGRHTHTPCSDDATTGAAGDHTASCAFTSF

The other results are listed elsewhere or left out.

For the assay, the target named is OsWRKY34 (Oryza sativa, UniProt Q0JBA9 1-250). Put plainly: protein-binding microarray (RPBM); PBS, 2% BSA, 51.3 ng/ul salmon testes DNA, 50 uM zinc acetate, 200 nM TF, 25 C, 1 h; high values mean tight binding. The note with it: protein: recombinant; tags: N-terminal polyhistidine and DsRed monomer fusion (pET32a); label: CyDye5-dUTP incorporated in the synthesized complementary strand; 3' TTTTT single-stranded linker to array surface; dsDNA, one strand shown. The method in brief: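 Polyhistidine-tagged DsRed fusions of transcription factors, joined at the N-terminus, were expressed in E. coli BL21-CodonPlus and isolated on Ni–NTA. They were incubated at 200 nM for 1 h at 25 °C on a custom Agilent array, double-stranded and BSA-blocked, in PBS with 2% BSA, salmon testes DNA and 50 µM zinc acetate. The binding signal is per-feature fluorescence intensity (arbitrary units) read on an Axon 4000B scanner after washing.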
In the case of “ATGTGTTTGTGTGTCTCTGCCACGTTTCGAAAAAACAACTCGGAGTCACCTAGTGCAG”, the binding signal was 9740 fluorescence intensity (a.u.). Regarding “ACCCTGGTTTCCGTGTCCAACGTTTGACCATTCGTCTTATCGGAGTCACCTAGTGCAG”, the binding signal is 12300 fluorescence intensity (a.u.).

Turning to “GCACGCCGTTGTTCATAGTGTTAAGCCTAAGGCCTTGTTTCGGAGTCACCTAGTGCAG”, the binding signal was 9920 fluorescence intensity (a.u.). With “TTCCTCTGCCACTGCATCTCGTGCTCACTGGCCCGTTTGCCGGAGTCACCTAGTGCAG”, the binding signal is 8780 fluorescence intensity (a.u.).

As for “GATCTCCCAGGGTTATAATCTTATGATTTTTTCCTGCTCTCGGAGTCACCTAGTGCAG”, the binding signal was 8340 fluorescence intensity (a.u.). As for “GGAGGTTTTGTCATTTGTGCGCGTGGGGATGCGCGAGTTTCGGAGTCACCTAGTGCAG”, the figure is 11800 fluorescence intensity (a.u.). As for “CAAAGCAACCACACCACTCTCTTTTTTAAGGTACCAATTACGGAGTCACCTAGTGCAG”, the figure is 8040 fluorescence intensity (a.u.); as for “CCACAACACGTTAGCACCTCATCGGCCCAATCTTGAAAGCCGGAGTCACCTAGTGCAG”, 8620 fluorescence intensity (a.u.). Under “ACACACTGTTCACCTTGCCCTCGCTGCCCCGGCAACTCACCGGAGTCACCTAGTGCAG” stands 8970 fluorescence intensity (a.u.); under “TCACACCCGTTCCATCCGTCGCGGTTGACCCCGCGCAGCACGGAGTCACCTAGTGCAG”, 9740 fluorescence intensity (a.u.). Take “ATGGACCGCGGCGGCGACCGCCTCTGCTACGTCCAGTTCCCGGAGTCACCTAGTGCAG”: the binding signal was 8220 fluorescence intensity (a.u.). Under “CCCCTACAATTTGTTGTTTCTTCTTACAAATTATACTACTCGGAGTCACCTAGTGCAG” stands 11300 fluorescence intensity (a.u.); under “ATTCCATTATTTATCTTGTTCTTCCATTCCAGGCCTCCAACGGAGTCACCTAGTGCAG”, 8350 fluorescence intensity (a.u.).

Consider “TGGAGTGGCTCACGTGCGCGGAGCGAGGCGTGGTTTGACCCGGAGTCACCTAGTGCAG”, for which the binding signal was 8630 fluorescence intensity (a.u.). As for “GCGGCGGGGCGGCGGGCGAGGGTTCTGGAGAGCGCGAGCGCGGAGTCACCTAGTGCAG”, the figure is 11800 fluorescence intensity (a.u.); as for “TTGCTCGCAAAACAAATACTGGCCATTAACCCGCAGCATCCGGAGTCACCTAGTGCAG”, 8640 fluorescence intensity (a.u.); as for “GACCCGCTTCCTCGCCACCGACTACTTCGCGCCGTCCTCCCGGAGTCACCTAGTGCAG”, 15700 fluorescence intensity (a.u.). Under “ACATGTGGGCCCTACATCCCAGCCGGTCCACGTCGGTTCACGGAGTCACCTAGTGCAG” stands 9390 fluorescence intensity (a.u.); under “TGTTCTCACTTTTTGCTTCAACACTTGCTTTTGTCACTTCCGGAGTCACCTAGTGCAG”, 9430 fluorescence intensity (a.u.).

In the case of “CACCGTCTCCGCTCGCCGCGCGCTCCCGCCGCCGCGCAGCCGGAGTCACCTAGTGCAG”, the binding signal is 8200 fluorescence intensity (a.u.). For the sequence “AGTTCCAGATCTCCCAAGTGCTCCACTACATATTCGTGCACGGAGTCACCTAGTGCAG”, the binding signal is 9100 fluorescence intensity (a.u.). Under “TAGATTTGTGTCTCTTTGCTTGGTATTGGTCACTCCATCGCGGAGTCACCTAGTGCAG” stands 11800 fluorescence intensity (a.u.). As for “TCCATTTCATTGTTAGGTGTACTTTTATCACTGTCCATCTCGGAGTCACCTAGTGCAG”, the figure is 9090 fluorescence intensity (a.u.); as for “ACGCCATTGACTTTTTAGCAGATGTTTGACCGTTCGTTTTCGGAGTCACCTAGTGCAG”, 20700 fluorescence intensity (a.u.). As for “ACCAATCTATCCATCTACAATATTTAACCCATACATAAACCGGAGTCACCTAGTGCAG”, the figure is 8140 fluorescence intensity (a.u.); as for “CCTATATTATGCGTCCTGCAGATCTTCTCTAGTTTCCCAACGGAGTCACCTAGTGCAG”, 8770 fluorescence intensity (a.u.). With “TTCCGTCGTGGTCATCATTCCAGTGAACTGTTTAGCTGTTCGGAGTCACCTAGTGCAG”, the binding signal is 10200 fluorescence intensity (a.u.).

Take “TTAACCTCGCATTTCTGTACTACGCCCTAAGTTACATTCTCGGAGTCACCTAGTGCAG”: the binding signal is 8620 fluorescence intensity (a.u.). As for “CACACCTTTTTATATATATATACTCTTCTTTAGCCACAATCGGAGTCACCTAGTGCAG”, the figure is 9600 fluorescence intensity (a.u.). As for “TTCGGGGTGTTCGTCAAAAATGTGGGGAGGAGGCATGGATCGGAGTCACCTAGTGCAG”, the figure is 13100 fluorescence intensity (a.u.); as for “TGAAGCCGCCCCTTATTTTTTGGCTCATTTACACACGAGTCGGAGTCACCTAGTGCAG”, 11000 fluorescence intensity (a.u.); as for “CCAGGTGAGATGTGTGAGTGGGTTTTGGTGTGAAGGGGTCCGGAGTCACCTAGTGCAG”, 8230 fluorescence intensity (a.u.).

Regarding “ATCGAGGAAGTCAAATGTGCACCGGTTTTAATAGTTGGGGCGGAGTCACCTAGTGCAG”, the binding signal was 8640 fluorescence intensity (a.u.). Under “TCTCAGTGGTTGCTTATTTCTTAAATCTTTATCATATCAGCGGAGTCACCTAGTGCAG” stands 11500 fluorescence intensity (a.u.); under “GCAATTTCTGTGTTTTGCAATCATCTGTTTTACACTTGCACGGAGTCACCTAGTGCAG”, 10400 fluorescence intensity (a.u.); under “GGTTGTGTTCTTGTTGGCGAGGAGGAGAGAGGGGTGGGGTCGGAGTCACCTAGTGCAG”, 14700 fluorescence intensity (a.u.). Take “ATAGAGGCCATGTGCTGCTCCGGCAATTCTTTCTCTACATCGGAGTCACCTAGTGCAG”: the binding signal is 8770 fluorescence intensity (a.u.). Under “ATGATTTTTCGTGCCCAACTTTAATTGTCCGTATTTTTTGCGGAGTCACCTAGTGCAG” stands 8430 fluorescence intensity (a.u.). Under “TGCCTTGAGATCTTTTGTTTAACCACCACCAAGGCTGGGGCGGAGTCACCTAGTGCAG” stands 8890 fluorescence intensity (a.u.); under “TATTTGTTTAGGGCAGCATTTCTTCGGCGTGTTCCAACCTCGGAGTCACCTAGTGCAG”, 8500 fluorescence intensity (a.u.); under “TCAATTCGATCGCGTGTGCTGTGTGGGACCCGTGGGCGCCCGGAGTCACCTAGTGCAG”, 8260 fluorescence intensity (a.u.). As for “CCGTCTCCATCCACACCTTCTCTCTTTGGCCTTATCTTCTCGGAGTCACCTAGTGCAG”, the figure is 14900 fluorescence intensity (a.u.).
